Source: PubChem BioAssay AID743454 (Peter MacCallum Cancer Centre, 2014)
Assay: 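Genes whose loss kills vorinostat-resistant colon cancer cells under vorinostat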 (primary screen). Cells: human HCT116-VR colon cancer cells, selected for vorinostat resistance. Reagents: siRNA pool against human genes, 40 nM siRNA pool. Duration: vorinostat for 24 h, read-out about 72 h after transfection. Challenge: vorinostat at 2.5 µM final. Detection: 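Cell viability by CellTiter-Fluor and caspase 3/7 activity by luminescence, each scaled to mock wells per plate, duplicates averaged, then robust z-scored over all plates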. Scale: viability robust z-score: higher = more viable cells than screen typical; caspase robust z-score: higher = more caspase 3/7 activity than screen typical. Call rule: 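a knock-down is a hit when classed RV1 or RV2 for lowered viability, or CA1 or CA2 for caspase activation; those lethal without drug were dropped; hits were retested singly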.
Shown is an unselected part of about 18,000 reagents. Of all reagents, 450 (2.5%) were called active. 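Single biological run; no consistent viability z cut-off exists, so the class columns, not z-scores, define the calls.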 A number with no mark means an inactive call. No sequences are given here.

| gene symbol | viability hit class | caspase hit class | viability robust z-score | caspase robust z-score |
| --- | --- | --- | --- | --- |
| DIP2B (DIP2 acetate--CoA ligase B (putative)) | no change | no change | -1.18 | 0.44 |
| LMX1B (LIM homeobox transcription factor 1 beta) | no change | no change | 0.44 | -0.38 |
| CAMSAP2 | no change | no change | 0.02 | -0.66 |
| SNX19 (sorting nexin 19) | no change | no change | -0.26 | -0.45 |
| APBB1IP | no change | no change | -1.08 | -0.31 |
| TMEM50B (transmembrane protein 50B) | no change | no change | -1.2 | 4.97 |
| RBMY1A1 (RNA binding motif protein Y-linked family 1 member A1) | no change | no change | 0.88 | -0.66 |
| FOSB (FosB proto-oncogene, AP-1 transcription factor subunit) | no change | no change | 0.84 | 1.82 |
| TMEM65 (transmembrane protein 65) | no change | no change | 0.84 | -0.82 |
| CALHM1 (calcium homeostasis modulator 1) | no change | no change | -0.09 | 2.37 |
| TSGA10 (testis specific 10) | no change | no change | -0.43 | 0.94 |
| ANKRD29 (ankyrin repeat domain 29) | no change | no change | 0.46 | -0.14 |
| CYP2E1 (cytochrome P450 family 2 subfamily E member 1) | no change | no change | 0.3 | -0.2 |
| DENND1A (DENN domain containing 1A) | no change | no change | 0.26 | -0.78 |
| MLX (MAX dimerization protein MLX) | no change | no change | -1.42 | 0.6 |
| GPR87 (G protein-coupled receptor 87) | no change | no change | 0.24 | 1.62 |
| SCN2A (sodium voltage-gated channel alpha subunit 2) | no change | no change | -0.96 | -1.27 |
| CAPS2 (calcyphosine 2) | no change | no change | 0.4 | -0.8 |
| YIF1B | no change | no change | -0.49 | -0.57 |
| SH2D2A (SH2 domain containing 2A) | no change | no change | 1.23 | -0.36 |
| CHCHD2 (coiled-coil-helix-coiled-coil-helix domain containing 2) | no change | no change | 0.98 | 0.19 |
| MOK (MOK protein kinase) | no change | no change | 0.55 | 2.19 |
| TIMCC (TIM double twin CX3C motif chaperone) | no change | no change | -1.42 | -0.26 |
| CAPZA1 (capping actin protein of muscle Z-line subunit alpha 1) | no change | no change | -0.92 | -0.4 |
| TRIM56 (tripartite motif containing 56) | no change | no change | -0.18 | 3.59 |
| ATM (ATM serine/threonine kinase) | no change | no change | 0.22 | -0.41 |
| ARC (activity regulated cytoskeleton associated protein) | no change | no change | -2.23 | 4.44 |
| STAU2 (staufen double-stranded RNA binding protein 2) | no change | no change | -0.84 | -0.8 |
| PYCR2 (pyrroline-5-carboxylate reductase 2) | no change | no change | -2.01 | 0.34 |
| ZNF878 (zinc finger protein 878) | no change | no change | 0.5 | 0.55 |
| C1orf74 (chromosome 1 open reading frame 74) | no change | no change | -0.38 | 1.88 |
| MGST2 (microsomal glutathione S-transferase 2) | no change | no change | -0.34 | 2.04 |
| BDKRB2 (bradykinin receptor B2) | no change | no change | -0.62 | 0.32 |
| NSUN4 (NOP2/Sun RNA methyltransferase 4) | no change | no change | 1.07 | 1.55 |
| LRRN2 (leucine rich repeat neuronal 2) | no change | no change | -0.16 | 1.94 |
| ASCC3 (activating signal cointegrator 1 complex subunit 3) | no change | no change | -1.04 | 0.06 |
| BRAP (BRCA1 associated protein) | no change | no change | 0.34 | -0.02 |
| PIP5K1B (phosphatidylinositol-4-phosphate 5-kinase type 1 beta) | no change | no change | 0.23 | -0.19 |
| NDUFS7 (NADH:ubiquinone oxidoreductase core subunit S7) | no change | no change | -0.33 | 0.66 |
| KRTAP12-4 (keratin associated protein 12-4) | no change | no change | -0.26 | -0.39 |
| MC3R (melanocortin 3 receptor) | no change | no change | -0.94 | -0.04 |
| CYP2S1 (cytochrome P450 family 2 subfamily S member 1) | no change | no change | -1.2 | 1.9 |
| LRRC4B (leucine rich repeat containing 4B) | no change | no change | 1.45 | 2.06 |
| SMAGP (small cell adhesion glycoprotein) | no change | no change | -0.42 | -0.76 |
| EVPL (envoplakin) | no change | no change | 0.11 | -0.88 |
| RBM3 (RNA binding motif protein 3) | no change | no change | -2 | -0.08 |
| PABPC5 (poly(A) binding protein cytoplasmic 5) | no change | no change | 0.44 | -1.09 |
| EDNRA (endothelin receptor type A) | no change | no change | 1.06 | 0.8 |
| RPL14 (ribosomal protein L14) | no change | no change | -5.96 | -0.32 |
| C19orf44 (chromosome 19 open reading frame 44) | no change | no change | -0.26 | 1.99 |
| KCNN4 (potassium calcium-activated channel subfamily N member 4) | no change | no change | 0.95 | 4.58 |
| RAB15 (RAB15, member RAS oncogene family) | no change | no change | 0.6 | 0.53 |
| PRELID3A (PRELI domain containing 3A) | no change | no change | -0.84 | 0.24 |
| SYNM (synemin) | no change | no change | 1.1 | -0.63 |
| CABS1 (calcium binding protein, spermatid associated 1) | no change | no change | 0.1 | -0.02 |
| ABCF2 (ATP binding cassette subfamily F member 2) | no change | no change | -0.03 | -1.08 |
| ARL5B (ARF like GTPase 5B) | no change | no change | 0.78 | 0.58 |

Copied from the list:
EDNRA (endothelin receptor type A), caspase robust z-score = 0.8
For “caspase hit class”, SCN2A (sodium voltage-gated channel alpha subunit 2) has no change
CAPS2 (calcyphosine 2), caspase hit class: no change
